Screen size: about 320,000 compounds; about 2,100 (0.66%) were called active. The shares of active, inactive and inconclusive entries below differ from those in the screen. Calls come from the whole dose curve; as a rule, active = well fitted inhibition curve with a large enough effect in the signal ratio, with a control signal flat (not every such curve was filed as active); inconclusive = small, poorly fitted or top-dose-only effect, or effect the other way, or a change in a side signal; inactive = flat fitted curve, though single readings scatter; the % refers to the signal ratio. A potency beside an inconclusive call is a rough fit, not a confirmed value.
Assay: qHTS Assay for Lipid Storage Modulators in Drosophila S3 Cells
Conditions: BODIPY lipid droplet fluorescence, 18-24 h, cells fed with added oleic acid; lipid storage change, negative = inhibition: at 46.1 µM (top of the series) unless noted
Summary of the method: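 Drosophila S3 cells loaded with oleic acid (400 uM, as added) and compounds at several concentrations; lipid droplets imaged by 488-nm laser-scanning cytometry, 500–530 nm intensity and object ratio to cell channel. Percent activity normalized to 20 uM Triacsin C.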
% is set by controls: 0 for no effect and ±100 for the full control effect; potency is the fitted concentration of half-maximal effect.

Lipid storage change, negative = inhibition, inconclusive:
CC(Oc1ccccc1Cl)C(=O)N(Cc1cccs1)C1CCS(=O)(=O)C1 (stereo not drawn) -23.5%
COc1cccc(CNC(=O)C2Cc3ccccc3CN2C(C)=O)c1 (stereo not drawn) -12.6%
S=c1[nH]nc(CN2CCCC2)n1Cc1ccccc1 -7.87%
COc1ccccc1Nc1nc2ccc(C)cc2cc1C#N 1.86%
CC(OC(=O)c1ccccc1C(=O)N(C)Cc1ccccc1)C(=O)NC1(C#N)CCCCC1 (stereo not drawn)
CN1CCN(C(=O)CN(c2cccc(Cl)c2)S(=O)(=O)c2ccccc2)CC1 1.87%
Fc1ccc(Br)cc1/C=N/N1CCN(c2ccccc2)CC1 5.98%
CCOC(=O)NN=C1c2ccccc2-c2ccccc21 -23%
COc1ccc(CC2(CO)CCN(Cc3cnn(-c4ccc(F)cc4)c3)CC2)cc1 22.9%
Cn1c(NNC(=O)c2c(F)cccc2F)cc(=O)n(C)c1=O 24%
CSc1nc(N)nc(SCC(=O)OC(C)C)c1C#N 39.7%
COc1cc(/C=N/NC(=O)c2nnn(-c3nonc3N)c2C(C)C)ccc1OCc1ccc(F)cc1 -100%
O=C(Nc1ccccc1C(=O)NCC1CCCO1)c1ccccc1 (stereo not drawn) -21%
Cc1ccc(NC(=O)CCCCCN2C(=O)c3ccccc3C2=O)nc1 56.6%
O=C(NCCCSc1ccccc1)c1cnc(Cl)c(Cl)c1 76.5%
Cc1ccc(OCc2nnc(NC(=O)c3ccco3)s2)c(C)c1 24.1%
Cc1c(CCC(=O)NC2CC2)c(=O)oc2cc(O)ccc12 8.67%
CC1(C)CC(NCCC(c2ccccc2)c2ccco2)CCO1 (stereo not drawn) -7.79%
COc1ccc(OCCCC(=O)Nc2nc(C)c(C(C)=O)s2)cc1 31%
CC(C)(C)NC(=O)CN1CCCN(C(=O)c2cccc(S(=O)(=O)N3CCc4ccccc43)c2)CC1 -18.6%
CCN(C1CCCCC1)S(=O)(=O)c1cn(C)c(=O)n(C)c1=O 19.6%
O=C(c1ccccc1)n1c(=O)c(F)cn(COCCBr)c1=O 86.1%
NS(=O)(=O)c1cccc2cccnc12 22.8%
O=c1nc(N2CCCCC2)nc2n1CCO2 -15.2%
CCn1nnc(NC(=O)COc2ccc([N+](=O)[O-])cc2)n1 8.87%
Cc1cccnc1Nc1nc(-c2ccccn2)cs1 4.91%
CCCCn1c(N)c(N(C(=O)CSc2nnnn2-c2ccccc2)C2CCCC2)c(=O)[nH]c1=O 6.83%
CCOC(=O)c1[nH]ncc1CN1CCCC(C(=O)c2cccc(OC(C)C)c2)C1 (stereo not drawn) 10.3%
CCN(CC)C(=S)NC(=O)c1ccc(F)cc1 25.8% [at 9.22 µM]
CCOC(=O)N1CCC(N2CCN(Cc3ccccc3)C(CCO)C2)CC1 (stereo not drawn) -28.9%
COc1ccccc1-c1noc(COC(=O)c2ccc(Br)o2)n1 -10.3%
CC(C)c1ccc(NC(=O)c2cnn(-c3ccccc3)c2NC(=O)c2ccco2)cc1 3.32%
COc1cc([N+](=O)[O-])ccc1NC(=O)Cc1ccccc1 145%
CN(C)c1ccc(-c2cc(O)c3ncccc3c2)cc1 22.7%
CN(c1cccc(NC(=O)Cc2ccccc2)c1)S(C)(=O)=O 60.2%
COc1ccccc1C1=NOC(COC(=O)c2ccc(Br)cc2)C1 (stereo not drawn) -8.12%
O=C(c1ccc(Cl)cc1)N1CCC(c2nc(-c3cccs3)no2)CC1 24.7%
N#C/C(=C\c1ccc(N2CCCCC2)o1)C(N)=O -21.7%
CC(=O)N1CCc2cc(S(=O)(=O)NCC(=O)NCc3ccc(F)cc3)ccc21 14.7%
CN1CCN(CC(=O)N/N=C/c2ccc(F)c(F)c2)CC1 -142%
COC(=O)c1cc(NC(=O)c2cccc(C(F)(F)F)c2)c(=O)oc1C 5.79%
COc1cccc(NC(=O)c2ccccc2-c2ccccc2)c1 6.19% [at 9.22 µM]
Cc1ccc(OCCOc2ccc(S(=O)(=O)N3CCCC3)cc2C(N)=O)cc1 -2.65%
Cc1cccc(Cn2c(N3CCN(C)CC3)nc3c2c(=O)[nH]c(=O)n3C)c1 11.8%
COC(=O)c1c(C)oc2ccc(N(C(=O)Oc3ccccc3)S(=O)(=O)c3ccc(Cl)c([N+](=O)[O-])c3)cc12 42.1%
CCOc1cc(/C=N/NC(=O)c2cccc(S(=O)(=O)N3CCCC3)c2)ccc1OCC(=O)N(C)C
COc1cccc(CN(C)C(=O)c2cc(S(=O)(=O)N3CCCCCC3)ccc2OC)c1 32.1%
Cc1ccc(N(Cc2cc3ccccc3[nH]c2=O)C(=O)c2cccs2)cc1C 0.0711%

By substructure, the compounds so far containing two or more sulfur atoms.
Lipid storage change, negative = inhibition, inconclusive:
CC(Oc1ccccc1Cl)C(=O)N(Cc1cccs1)C1CCS(=O)(=O)C1 (stereo not drawn) -23.5%
CSc1nc(N)nc(SCC(=O)OC(C)C)c1C#N 39.7%

Following part:

Lipid storage change, negative = inhibition, inactive:
Cn1ncc(N=Cc2ccccc2[N+](=O)[O-])c1C(N)=O 12.9%
Cc1cc(/C=C2\SC(=S)N(Cc3ccco3)C2=O)c(C)n1-c1ccccc1 24.5%
COc1ccc(-n2c(=O)cc(N3CCN(Cc4ccccc4)CC3)[nH]c2=O)cc1 -0.394%
O=C(Cc1ccccc1)Nc1nc2ccccc2s1 -4.4%

Potency, inconclusive:
COc1ccc(OC)c(C2C(C(C)=O)=C(O)C(=O)N2Cc2cccnc2)c1 (stereo not drawn) 9.2 µM [falling, single point]
Cc1ccc(-c2cc(-c3ccccc3)nc(N(C)N)n2)cc1 18.4 µM [falling, single point]
COc1cc(OC)c(NC(=O)CS(=O)(=O)Cc2nc(-c3ccc(C)cc3)oc2C)cc1Cl 16.4 µM [falling, single point]
C=CCn1c(SCc2csc(-c3ccc(C)cc3)n2)nnc1-c1ccccc1OC 18.4 µM [falling, single point]
CN(Cc1c(C(=O)N2CCCCCCC2)nc2ccc(Cl)cn12)C1CCOC1 (stereo not drawn) 3.66 µM [falling, partial curve, poor fit]
COc1cc(NC(=O)c2cccnc2Sc2ccc(C)c(C)c2)cc(OC)c1OC 25.9 µM [activator, single point]
NC(N)=NS(=O)(=O)c1ccc(NC(=S)NC(=O)/C=C/c2ccccc2)cc1 29.1 µM [activator, single point]
COc1ccc(OC)c(-c2csc(NC(=O)COC(=O)C3CC3)n2)c1 29.1 µM [falling, single point]
CC1(C)CC(=O)C(CC(=O)Nc2cc(C(F)(F)F)ccc2Cl)C(=O)C1 29.1 µM [falling, single point]
COc1ccc(Nc2cc(C(=O)NCCCN3CCOCC3)c3ccccc3n2)cc1OC 1.46 µM [activator, partial curve]
CN(C)c1ccc(C(=O)c2ccccc2C(=O)O)cc1[N+](=O)[O-] 32.6 µM [falling, single point]
CC1CCCCC1NC(=O)/C(C#N)=C/c1ccc(F)c(F)c1 (stereo not drawn) 8.2 µM [falling, partial curve]
CCn1c(=O)c(=O)[nH]c2cc(C(=O)NC3CCCC3)ccc21 0.0046 µM [falling, full curve, poor fit]
C=CCn1c(Cc2cccs2)nnc1SCC(=O)NCc1ccco1 29.1 µM [falling, single point]
O=C(N/N=C\c1cccc(Cl)c1)c1n[nH]c2c1CCCC2 29.1 µM [falling, single point]
COc1ccc(OCCCC(=O)Nc2cc(S(=O)(=O)N3CCCCC3)ccc2OC)cc1 0.0046 µM [falling, full curve, poor fit]
Cc1c(C)n(C)c2ccc(C(=O)NCCCN3CCN(c4ccccc4F)CC3)cc12 18.4 µM [activator, single point]
COc1cccc(C2NC(C)(C(=O)O)C3C(=O)N(C(C)C)C(=O)C23)c1O (stereo not drawn) 0.0046 µM [activator, full curve, poor fit]
CN(C)c1ccc(NC(=S)c2ccc3ccccc3n2)cc1 0.651 µM [falling, partial curve]
S=C(N/N=C1\C2CN3CCN(C2)CC1(c1ccccc1)C3)Nc1ccccc1 13 µM [rising, single point]
COc1ccc(C)cc1Nc1c2c(nc3ccccc13)CCC2 29.1 µM [falling, single point]
O=C(CCS(=O)(=O)c1ccccc1)N1CCN(c2ccccc2)CC1 18.4 µM [activator, single point]
O=C(NNC(=O)c1c(F)cccc1F)c1ccccc1-n1cccc1 0.82 µM [rising, single point]
Cc1ccc(OCC(=O)Nc2ccc3c(c2)C(=O)NC3=O)c(C)c1 6.51 µM [activator, single point]

outcome, inactive:
COC(=O)CSc1nc(N2CCOCC2)c2c(c1C#N)CC(C)(C)N(C)C2 inactive [at 46.1 µM]
Cc1ccc(S(=O)(=O)CC(=O)Nc2nc(C(C)(C)C)cs2)cc1 inactive [at 46.1 µM]
